Experimental data from the supplement of paper PMC12823440, “Inhibitors supercharge kinase turnover through native proteolytic circuits” (Nature, 2025).
The other results are listed elsewhere or left out. The calls rarely recur for the same compound in another form.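 In K562 cells expressing nanoluciferase-fused kinases, luminescence was recorded at 4 h intervals between 2 and 18 h, normalized as percent of control with DMSO at 100% and a positive control at 0%. A significant (2 sigma) signal drop marks a time point as decreased. The authors' rule for a hit is not shown and takes in more than the number of time points.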

Amino acid sequences for entries named in this document (tags omitted). A change or cut given only in a name is not applied to a line headed by its entry.
UniProt Q14289, whole entry, looked up: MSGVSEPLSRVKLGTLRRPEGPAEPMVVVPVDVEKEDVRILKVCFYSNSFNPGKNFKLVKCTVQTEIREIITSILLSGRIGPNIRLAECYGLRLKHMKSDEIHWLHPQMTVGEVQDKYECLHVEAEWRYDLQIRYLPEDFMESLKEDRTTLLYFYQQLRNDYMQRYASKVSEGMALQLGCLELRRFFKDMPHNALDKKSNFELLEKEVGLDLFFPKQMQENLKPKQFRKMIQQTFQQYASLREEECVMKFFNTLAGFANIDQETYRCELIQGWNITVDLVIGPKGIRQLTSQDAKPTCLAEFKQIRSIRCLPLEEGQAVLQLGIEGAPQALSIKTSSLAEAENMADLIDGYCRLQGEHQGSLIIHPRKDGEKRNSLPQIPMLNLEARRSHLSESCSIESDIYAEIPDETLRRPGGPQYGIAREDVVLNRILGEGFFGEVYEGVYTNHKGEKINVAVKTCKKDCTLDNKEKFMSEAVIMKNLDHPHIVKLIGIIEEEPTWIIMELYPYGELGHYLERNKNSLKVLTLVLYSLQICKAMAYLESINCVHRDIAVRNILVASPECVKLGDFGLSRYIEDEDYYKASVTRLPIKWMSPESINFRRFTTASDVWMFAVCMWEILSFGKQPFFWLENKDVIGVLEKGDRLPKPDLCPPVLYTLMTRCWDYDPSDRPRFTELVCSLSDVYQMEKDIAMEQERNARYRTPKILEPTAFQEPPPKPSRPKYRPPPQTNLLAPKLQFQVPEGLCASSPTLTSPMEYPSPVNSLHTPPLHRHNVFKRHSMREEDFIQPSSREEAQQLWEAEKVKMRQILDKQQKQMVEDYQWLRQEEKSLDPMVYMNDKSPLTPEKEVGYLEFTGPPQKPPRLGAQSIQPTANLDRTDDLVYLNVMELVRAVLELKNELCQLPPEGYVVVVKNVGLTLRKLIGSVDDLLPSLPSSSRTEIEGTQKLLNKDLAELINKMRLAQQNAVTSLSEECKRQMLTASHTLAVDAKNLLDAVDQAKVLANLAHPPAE
UniProt P07949, whole entry, looked up: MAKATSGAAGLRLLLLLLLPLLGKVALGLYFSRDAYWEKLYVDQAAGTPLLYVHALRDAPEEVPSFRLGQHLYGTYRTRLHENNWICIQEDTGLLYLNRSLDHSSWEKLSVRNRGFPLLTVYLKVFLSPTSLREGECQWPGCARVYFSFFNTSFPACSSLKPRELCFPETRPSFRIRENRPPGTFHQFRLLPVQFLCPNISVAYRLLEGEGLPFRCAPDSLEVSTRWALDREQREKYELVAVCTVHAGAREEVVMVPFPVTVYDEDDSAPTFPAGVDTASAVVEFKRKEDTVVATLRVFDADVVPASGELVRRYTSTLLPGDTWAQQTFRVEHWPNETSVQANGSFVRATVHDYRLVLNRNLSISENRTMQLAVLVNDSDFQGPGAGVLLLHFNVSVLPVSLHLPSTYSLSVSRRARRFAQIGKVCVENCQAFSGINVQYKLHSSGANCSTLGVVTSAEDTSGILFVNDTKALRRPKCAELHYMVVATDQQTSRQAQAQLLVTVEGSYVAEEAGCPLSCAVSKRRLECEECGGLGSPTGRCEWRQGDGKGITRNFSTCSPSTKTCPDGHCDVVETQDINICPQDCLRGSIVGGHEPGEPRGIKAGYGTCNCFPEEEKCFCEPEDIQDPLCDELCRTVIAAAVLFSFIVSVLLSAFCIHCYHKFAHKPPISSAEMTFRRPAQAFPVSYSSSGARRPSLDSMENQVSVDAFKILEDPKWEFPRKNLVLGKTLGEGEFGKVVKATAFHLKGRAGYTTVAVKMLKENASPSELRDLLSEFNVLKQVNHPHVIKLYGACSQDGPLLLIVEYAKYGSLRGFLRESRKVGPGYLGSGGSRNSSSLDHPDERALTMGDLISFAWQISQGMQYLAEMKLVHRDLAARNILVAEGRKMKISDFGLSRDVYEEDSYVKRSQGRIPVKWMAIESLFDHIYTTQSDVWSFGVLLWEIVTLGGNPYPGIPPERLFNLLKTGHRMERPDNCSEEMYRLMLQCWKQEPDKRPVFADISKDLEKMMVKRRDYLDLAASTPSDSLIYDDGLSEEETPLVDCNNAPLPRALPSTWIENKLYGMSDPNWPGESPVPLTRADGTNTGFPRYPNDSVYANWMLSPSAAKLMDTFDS
UniProt Q9BRS2: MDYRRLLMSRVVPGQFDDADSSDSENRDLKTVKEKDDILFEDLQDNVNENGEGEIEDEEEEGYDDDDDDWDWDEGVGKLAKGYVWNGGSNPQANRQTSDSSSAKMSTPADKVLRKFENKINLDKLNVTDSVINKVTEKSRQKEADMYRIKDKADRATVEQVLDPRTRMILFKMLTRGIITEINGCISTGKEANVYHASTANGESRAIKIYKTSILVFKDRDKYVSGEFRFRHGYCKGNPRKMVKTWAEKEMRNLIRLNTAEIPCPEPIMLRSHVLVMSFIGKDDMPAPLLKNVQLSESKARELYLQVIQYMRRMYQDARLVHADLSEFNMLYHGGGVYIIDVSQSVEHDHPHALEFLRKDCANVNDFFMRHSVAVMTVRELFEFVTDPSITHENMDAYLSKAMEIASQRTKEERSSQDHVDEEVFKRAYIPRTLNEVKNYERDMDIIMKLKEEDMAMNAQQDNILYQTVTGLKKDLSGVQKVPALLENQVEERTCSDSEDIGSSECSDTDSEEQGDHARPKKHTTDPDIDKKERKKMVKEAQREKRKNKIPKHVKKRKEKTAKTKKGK
UniProt Q13546: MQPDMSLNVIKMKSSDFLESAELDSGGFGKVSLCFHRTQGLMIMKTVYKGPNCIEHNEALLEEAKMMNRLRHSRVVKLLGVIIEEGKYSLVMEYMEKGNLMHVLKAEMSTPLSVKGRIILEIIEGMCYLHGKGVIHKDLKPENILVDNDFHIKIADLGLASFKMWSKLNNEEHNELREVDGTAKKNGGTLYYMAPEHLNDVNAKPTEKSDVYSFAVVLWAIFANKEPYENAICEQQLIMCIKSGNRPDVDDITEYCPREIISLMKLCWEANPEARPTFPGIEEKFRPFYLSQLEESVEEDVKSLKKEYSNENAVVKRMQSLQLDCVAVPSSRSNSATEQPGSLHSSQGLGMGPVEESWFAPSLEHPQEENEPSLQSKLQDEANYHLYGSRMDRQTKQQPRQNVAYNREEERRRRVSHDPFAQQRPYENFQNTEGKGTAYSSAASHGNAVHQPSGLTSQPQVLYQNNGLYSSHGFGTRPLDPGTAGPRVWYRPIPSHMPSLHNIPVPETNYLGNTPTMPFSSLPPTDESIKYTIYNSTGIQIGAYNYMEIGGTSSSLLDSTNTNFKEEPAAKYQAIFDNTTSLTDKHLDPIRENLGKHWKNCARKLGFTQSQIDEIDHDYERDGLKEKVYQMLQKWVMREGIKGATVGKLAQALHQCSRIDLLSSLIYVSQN
UniProt Q15418, whole entry: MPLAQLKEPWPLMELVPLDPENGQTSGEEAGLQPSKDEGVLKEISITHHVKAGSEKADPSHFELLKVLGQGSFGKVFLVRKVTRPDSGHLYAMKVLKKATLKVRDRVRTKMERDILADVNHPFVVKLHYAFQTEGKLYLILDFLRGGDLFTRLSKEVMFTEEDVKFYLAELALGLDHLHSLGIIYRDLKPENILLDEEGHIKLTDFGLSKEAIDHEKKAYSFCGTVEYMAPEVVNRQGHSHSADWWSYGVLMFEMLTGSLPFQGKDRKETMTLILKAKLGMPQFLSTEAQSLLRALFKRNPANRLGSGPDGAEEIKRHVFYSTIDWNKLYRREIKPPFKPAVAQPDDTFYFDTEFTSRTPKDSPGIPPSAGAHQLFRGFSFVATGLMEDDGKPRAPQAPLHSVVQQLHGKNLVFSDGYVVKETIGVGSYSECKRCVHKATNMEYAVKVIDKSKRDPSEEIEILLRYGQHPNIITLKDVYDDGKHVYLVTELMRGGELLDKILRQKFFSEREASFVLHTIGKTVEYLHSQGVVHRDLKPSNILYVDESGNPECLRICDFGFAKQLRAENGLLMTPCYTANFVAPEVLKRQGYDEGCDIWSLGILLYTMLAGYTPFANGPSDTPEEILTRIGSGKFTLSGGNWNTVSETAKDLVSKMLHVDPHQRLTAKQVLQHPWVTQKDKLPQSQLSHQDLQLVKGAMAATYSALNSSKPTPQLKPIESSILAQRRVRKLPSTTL
UniProt Q9NYA1, whole entry: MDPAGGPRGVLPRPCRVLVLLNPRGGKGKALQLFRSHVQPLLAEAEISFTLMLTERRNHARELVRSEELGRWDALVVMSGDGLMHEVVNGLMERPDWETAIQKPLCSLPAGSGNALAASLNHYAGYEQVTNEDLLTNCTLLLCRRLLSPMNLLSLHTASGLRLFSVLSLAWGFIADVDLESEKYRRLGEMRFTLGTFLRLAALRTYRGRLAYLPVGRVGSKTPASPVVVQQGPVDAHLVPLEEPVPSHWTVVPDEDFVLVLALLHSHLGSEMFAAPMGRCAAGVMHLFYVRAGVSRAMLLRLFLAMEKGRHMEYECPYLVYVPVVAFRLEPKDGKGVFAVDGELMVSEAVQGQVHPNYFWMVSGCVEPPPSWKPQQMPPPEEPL
UniProt Q9Y6E0: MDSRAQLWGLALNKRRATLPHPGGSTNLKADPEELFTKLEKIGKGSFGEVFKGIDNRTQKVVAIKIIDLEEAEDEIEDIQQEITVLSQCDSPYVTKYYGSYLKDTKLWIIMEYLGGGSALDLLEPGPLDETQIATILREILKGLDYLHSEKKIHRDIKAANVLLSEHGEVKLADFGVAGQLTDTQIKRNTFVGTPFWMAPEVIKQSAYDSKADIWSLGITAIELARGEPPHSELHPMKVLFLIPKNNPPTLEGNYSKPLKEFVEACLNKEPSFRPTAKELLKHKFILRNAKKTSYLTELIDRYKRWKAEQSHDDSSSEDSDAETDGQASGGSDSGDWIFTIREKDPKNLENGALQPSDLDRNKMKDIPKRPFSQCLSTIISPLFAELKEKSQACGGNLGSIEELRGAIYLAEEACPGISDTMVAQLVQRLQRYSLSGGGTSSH
UniProt Q15208: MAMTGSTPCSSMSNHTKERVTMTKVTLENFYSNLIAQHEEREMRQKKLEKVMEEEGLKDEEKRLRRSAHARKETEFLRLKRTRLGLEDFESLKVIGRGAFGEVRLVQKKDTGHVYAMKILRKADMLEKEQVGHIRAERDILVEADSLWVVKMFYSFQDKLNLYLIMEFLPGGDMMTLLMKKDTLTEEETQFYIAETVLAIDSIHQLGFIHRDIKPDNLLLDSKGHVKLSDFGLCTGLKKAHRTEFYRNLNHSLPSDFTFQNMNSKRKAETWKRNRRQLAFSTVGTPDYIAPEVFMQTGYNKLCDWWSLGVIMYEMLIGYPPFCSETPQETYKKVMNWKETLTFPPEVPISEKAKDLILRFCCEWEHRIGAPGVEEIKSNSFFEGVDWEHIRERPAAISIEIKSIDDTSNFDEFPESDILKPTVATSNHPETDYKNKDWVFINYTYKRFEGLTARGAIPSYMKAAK
UniProt Q6PHR2: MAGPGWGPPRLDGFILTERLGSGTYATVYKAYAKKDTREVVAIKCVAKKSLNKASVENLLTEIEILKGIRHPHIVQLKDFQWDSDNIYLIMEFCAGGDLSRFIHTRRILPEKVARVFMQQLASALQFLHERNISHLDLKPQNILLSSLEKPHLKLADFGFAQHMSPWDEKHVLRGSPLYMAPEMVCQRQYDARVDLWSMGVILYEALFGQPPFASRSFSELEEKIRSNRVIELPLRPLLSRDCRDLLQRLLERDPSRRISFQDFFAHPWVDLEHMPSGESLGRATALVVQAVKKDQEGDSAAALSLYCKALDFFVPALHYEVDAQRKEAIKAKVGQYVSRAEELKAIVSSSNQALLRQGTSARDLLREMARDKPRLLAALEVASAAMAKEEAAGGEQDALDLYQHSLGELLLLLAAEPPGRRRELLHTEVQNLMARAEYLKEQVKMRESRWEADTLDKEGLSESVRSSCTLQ

What was measured:
Test in all cases: number of time points (of 5) at which kinase-Nluc abundance scored as decreased, DMSO-normalised (count); higher = more persistent destabilization
Details in all cases: K562; 2-18 h
PRKCA = PRKCA (UniProt P17252)
PTK2 = PTK2 (UniProt Q05397)
PTK2B = PTK2B (UniProt Q14289)
RAF1 = RAF1 (UniProt P04049)
[1] = molecular target: RAF1_S257L (clone: RAF1_mut) (UniProt P04049)
RET = RET (UniProt P07949)
[2] = molecular target: RET_M918T (clone: RET_mut) (UniProt P07949)
RIOK1 = RIOK1 (UniProt Q9BRS2)
RIPK1 = RIPK1 (UniProt Q13546)
RIPK2 = RIPK2 (UniProt O43353)
ROR2 = ROR2 (UniProt Q01974)
RPS6KA1 = RPS6KA1 (UniProt Q15418)
SPHK1 = SPHK1 (UniProt Q9NYA1)
SRC = SRC (UniProt P12931)
STK24 = STK24 (UniProt Q9Y6E0)
STK38 = STK38 (UniProt Q15208)
SYK = SYK (UniProt P43405)
TEC = TEC (UniProt P42680)
TYK2 = TYK2 (UniProt P29597)
ULK3 = ULK3 (UniProt Q6PHR2)

Measured: number of time points

COc1cc(N2CCOCC2)ccc1Nc1ncc(Cl)c(Nc2ccccc2NS(C)(=O)=O)n1 (2.5 µM)
0: all assays above

Cn1cnc([N+](=O)[O-])c1C[N+](C)(C)C/C=C/C(=O)Nc1cc2c(Nc3ccc(Cl)c(Br)c3)ncnc2cn1 [Tarloxotinib (bromide)] (10 µM)
0: all assays above

O=C(Nc1nc(=O)n(Cc2ccc(Cl)cc2)s1)c1ccc(Cl)cc1 (10 µM)
0: all assays above

Cc1cc2sc(NC(=O)Cc3ccccc3)nc2cc1Cl (10 µM)
0: all assays above

Cn1ncc2cc(-c3cnc(N)c(Cl)c3N3CCC4(CCNC4=O)CC3)ccc21 (10 µM)
0: all assays above

C=CC(=O)N1C[C@H](COc2nc(Nc3cnn(C)c3)nc3[nH]cc(Cl)c23)[C@@H](OC)C1 (2.5 µM)
0: all assays above
